Source: PubChem BioAssay AID1224830 (NIAID, 2016)

Purpose: 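Regulators of TLR4 signalling towards TNF-alpha in macrophage-like cells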 (primary screen)
Cells: human THP-1 monocytic leukaemia cells, TNF dual-luciferase reporter clone, PMA-differentiated to macrophage-like cells
Reagents: siRNA pool against human genes, 50 nM
Duration: LPS for 4 h, given about 3 days after siRNA transfection
Conditions: bacterial LPS (TLR4 ligand), 10 ng/ml
Measurement: 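TNF firefly reporter luminescence divided by renilla, normalised to the plate median, then turned into a robust z-score for each replicate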
Reading the numbers: TNF reporter robust z-score: higher = stronger TNF reporter response to LPS
Hit rule: 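a well is active when its z-score exceeds 2.8 or falls below -1.5; control wells carry no call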
This is one part, drawn at random, of about 18,000 deposited reagents. Of all reagents, about 2,900 (16%) got an active call. 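Calls are made per well; low scores hint the gene aids the LPS response, high scores that it dampens it.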 Repeated entries: four replicate wells of each siRNA pool.

COPA showed TNF reporter robust z-score -0.53; inactive.
For COPA the deposit lists TNF reporter robust z-score -0.18; inactive.
COPA gave TNF reporter robust z-score -0.52; inactive.
COPA showed TNF reporter robust z-score 0.46; inactive.
RNF139 scored TNF reporter robust z-score -1.26; inactive.
Knock-down of RNF139 resulted in: TNF reporter robust z-score -0.48; inactive.
Knock-down of RNF139 resulted in: TNF reporter robust z-score -1.28; inactive.
With knock-down of RNF139, the record shows TNF reporter robust z-score 0.08; inactive.
Against NSUN2, the entry reads TNF reporter robust z-score -0.53; inactive.
Against NSUN2, the entry reads TNF reporter robust z-score 0.22; inactive.
Against NSUN2 the deposit lists TNF reporter robust z-score 0.21; inactive.
For NSUN2 the deposit lists TNF reporter robust z-score -1.15; inactive.
With knock-down of GDPD5, the record shows TNF reporter robust z-score 0.1; inactive.
Against GDPD5, the entry reads TNF reporter robust z-score -0.53; inactive.
Silencing of GDPD5 came out at: TNF reporter robust z-score 0.05; inactive.
With knock-down of GDPD5 the results were TNF reporter robust z-score -0.25; inactive.
Silencing of FBXL6 resulted in: TNF reporter robust z-score 0.77; inactive.
For FBXL6, the values are TNF reporter robust z-score 0.3; inactive.
Against FBXL6 the deposit lists TNF reporter robust z-score 0.12; inactive.
After knock-down of FBXL6 the results were TNF reporter robust z-score 0.53; inactive.

2 of these entries, reformatted.
{"Gene":"RNF139","TNF reporter robust z-score":0.08,"activity call":"inactive"}
{"Gene":"NSUN2","TNF reporter robust z-score":-0.53,"activity call":"inactive"}
